# Data from the supplement of paper PMC8728848.
# The list shows a part of the results.
# B1: YghJ (Escherichia coli), E3PJ90 (protein)
# chain: MNKKFKYKKSLLAAILSATLLAGCDGGGSGSSSDTPPVDSGTGSLPEVKPDPTPNPEPTPEPTPDPEPTPEPIPDPEPTPEPEPEPVPTKTGYLTLGGSQRVTGATCNGESSDGFTFKPGEDVTCVAGNTTIATFNTQSEAARSLRAVEKVSFSLEDAQELAGSDDKKSNAVSLVTSSNSCPANTEQVCLTFSSVIESKRFDSLYKQIDLAPEEFKKLVNEEVENNAATDKAPSTHTSPVVPVTTPGTKPDLNASFVSANAEQFYQYQPTEIILSEGRLVDSQGYGVAGVNYYTNSGRGVTGENGEFSFSWGEAISFGIDTFELGSVRGNKSTIALTELGDEVRGANIDQLIHRYSTTGQNNTRVVPDDVRKVFAEYPNVINEIINLSLSNGATLGEGEQVVNLPNEFIEQFNTGQAKEIDTAICAKTDGCNEARWFSLTTRNVNDGQIQGVINKLWGVDTNYKSVSKFHVFHDSTNFYGSTGNARGQAVVNISNAAFPILMARNDKNYWLAFGEKRAWDKNELAYITEAPSIVRPENVTRETASFNLPFISLGQVGDGKLMVIGNPHYNSILRCPNGYSWNGGVNKDGQCTLNSDPDDMKNFMENVLRYLSNDRWLPDAKSSMTVGTNLETVYFKKHGQVLGNSAPFAFHKDFTGITVKPMTSYGNLNPDEVPLLILNGFEYVTQWGSDPYSIPLRADTSKPKLTQQDVTDLIAYMNKGGSVLIMENVMSNLKEESASGFVRLLDAAGLSMALNKSVVNNDPQGYPDRVRQRRSTPIWVYERYPAVDGKPPYTIDDTTKEVIWKYQQENKPDDKPKLEVASWQEEVEGKQVTQFAFIDEADHKTPESLAAAKQRILDAFPGLEVCKDSDYHYEVNCLEYRPGTDVPVTGGMYVPQYTQLDLSADTAKAMLQAADLGTNIQRLYQHELYFRTNGRQGERLNSVDLERLYQNMSVWLWNETKYRYEEGKEDELGFKTFTEFLNCYTNNAYVGTQCSAELKKSLIDNKMIYGEESSKAGMMNPSYPLNYMEKPLTRLMLGRSWWDLNIKVDVEKYPGVVNTNGETVTQNINLYSAPTKWFAGNMQSTGLWAPAQQEVSIESKSTVPVTVTVALADDLTGREKHEVSLNRPPRVTKTYDLKANDKVTFKVPYGGLIYIKGDSKEVQSADFTFTGVVKAPFYKDGKWQHDLNSPAPLGELESASFVYTTPKKNLNASNYTGGLEQFANDLDTFASSMNDFYGRDSEDGKHRMFTYKNLPGHKHRFANDVQISIGDAHSGYPVMNSSFSPNSTTLPTTPLNDWLIWHEVGHNAAETPLTVPGATEVANNVLALYMQDRYLGKMNRVADDITVAPEYLEESNGQAWARGGAGDRLLMYAQLKEWAEKNFDIKKWYPDGTPLPEFYSEREGMKGWNLFQLMHRKARGDEVSNDKFGGKNYCAESNGNAADTLMLCASWVAQTDLSEFFKKWNPGANAYQLPGASEMSFEGGVSQSAYNTLASLDLPKPEQGPETINQVTEHKMSAE
# Tests used:
# Experiment in all cases: glycan array binding signal (z-score within array); higher = stronger binding
# Conditions in all cases: glycan notation: IUPAC condensed, linker removed
# Gal6S(b1-4)Glc6S = biological target: Gal6S(b1-4)Glc6S
# Summary of the method: (§1)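 The Consortium for Functional Glycomics database supplied 3228 glycan arrays, of which those lacking an available protein sequence were dropped. The binding signal, a within-array Z-score, was averaged across arrays of the same protein sequence and across linkers. Negative scores can be read as non-binding.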
# Gal6S(b1-4)GlcNAc = biological target: Gal6S(b1-4)GlcNAc
# Summary of the method: as §1
# Gal6S(b1-4)GlcNAc6S = biological target: Gal6S(b1-4)GlcNAc6S
# Summary of the method: as §1
# GalNAc(a1-3)Gal = biological target: GalNAc(a1-3)Gal
# Summary of the method: as §1
# GalNAc(a1-3)GalNAc = biological target: GalNAc(a1-3)GalNAc
# Summary of the method: as §1
# [1] = biological target: GalNAc(a1-3)GalNAc(b1-3)Gal(a1-4)Gal(b1-4)Glc
# Summary of the method: as §1
# [2] = biological target: GalNAc(a1-3)GalNAc(b1-3)Gal(a1-4)Gal(b1-4)GlcNAc
# Summary of the method: as §1
# GalNAc(b1-3)Gal = biological target: GalNAc(b1-3)Gal
# Summary of the method: as §1
# [3] = biological target: GalNAc(b1-3)Gal(a1-4)Gal(b1-4)GlcNAc
# Summary of the method: as §1
# [4] = biological target: GalNAc(b1-3)Gal(a1-4)Gal(b1-4)GlcNAc(b1-3)Gal(b1-4)Glc
# Summary of the method: as §1
# [5] = biological target: GalNAc(b1-3)Gal(a1-6)Gal(b1-4)Glc
# Summary of the method: as §1
# GalNAc(b1-3)GalNAc = biological target: GalNAc(b1-3)GalNAc
# Summary of the method: as §1
# GalNAc(b1-3)GlcNAc = biological target: GalNAc(b1-3)GlcNAc
# Summary of the method: as §1
# GalNAc(b1-4)Gal(b1-4)Glc = biological target: GalNAc(b1-4)Gal(b1-4)Glc
# Summary of the method: as §1
# GalNAc(b1-4)GlcNAc = biological target: GalNAc(b1-4)GlcNAc
# Summary of the method: as §1
# [6] = biological target: GalNAc(b1-4)GlcNAc(b1-2)Man
# Summary of the method: as §1
# [7] = biological target: GalNAc(b1-4)GlcNAc(b1-2)Man(a1-3)[GalNAc(b1-4)GlcNAc(b1-2)Man(a1-6)]Man(b1-4)GlcNAc(b1-4)GlcNAc
# Summary of the method: as §1
# [8] = biological target: GalNAc(b1-4)GlcNAc(b1-3)GalNAc(b1-4)GlcNAc
# Summary of the method: as §1
# GalNAc(b1-4)GlcNAc6S = biological target: GalNAc(b1-4)GlcNAc6S
# Summary of the method: as §1
# GalNAc(b1-6)GalNAc = biological target: GalNAc(b1-6)GalNAc
# Summary of the method: as §1
# GalNAc3S(b1-4)GlcNAc = biological target: GalNAc3S(b1-4)GlcNAc
# Summary of the method: as §1
# GalNAc3S(b1-4)GlcNAc3S = biological target: GalNAc3S(b1-4)GlcNAc3S
# Summary of the method: as §1
# [9] = biological target: GalNAc3S(b1-4)[Fuc(a1-3)]GlcNAc
# Summary of the method: as §1
# GalNAc4S6S(b1-4)GlcNAc = biological target: GalNAc4S6S(b1-4)GlcNAc
# Summary of the method: as §1
# GalNAc6S(b1-4)GlcNAc = biological target: GalNAc6S(b1-4)GlcNAc
# Summary of the method: as §1
# Glc(a1-4)Glc = biological target: Glc(a1-4)Glc
# Summary of the method: as §1
# [10] = biological target: Glc(a1-4)Glc(a1-4)Glc(a1-4)Glc
# Summary of the method: as §1
# Glc(a1-6)Glc(a1-6)Glc = biological target: Glc(a1-6)Glc(a1-6)Glc
# Summary of the method: as §1
# [11] = biological target: Glc(a1-6)Glc(a1-6)Glc(a1-6)Glc
# Summary of the method: as §1
# Glc(b1-4)Glc = biological target: Glc(b1-4)Glc
# Summary of the method: as §1
# Glc(b1-6)Glc = biological target: Glc(b1-6)Glc
# Summary of the method: as §1
# GlcA(b1-3)Gal = biological target: GlcA(b1-3)Gal
# Summary of the method: as §1
# GlcA(b1-3)GlcNAc = biological target: GlcA(b1-3)GlcNAc
# Summary of the method: as §1
# GlcA(b1-6)Gal = biological target: GlcA(b1-6)Gal
# Summary of the method: as §1
# [12] = biological target: GlcA3S(b1-3)Gal(b1-4)GlcNAc(b1-2)Man
# Summary of the method: as §1
# [13] = biological target: GlcA3S(b1-3)Gal(b1-4)GlcNAc(b1-3)Gal(b1-4)Glc
# Summary of the method: as §1
# [14] = biological target: GlcNAc(a1-3)Gal(b1-4)GlcNAc
# Summary of the method: as §1
# [15] = biological target: GlcNAc(a1-4)Gal(b1-3)GlcNAc
# Summary of the method: as §1
# [16] = biological target: GlcNAc(a1-4)Gal(b1-4)GalNAc
# Summary of the method: as §1
# [17] = biological target: GlcNAc(a1-4)Gal(b1-4)GlcNAc
# Summary of the method: as §1
# [18] = biological target: GlcNAc(a1-4)Gal(b1-4)GlcNAc(b1-3)Gal(b1-4)Glc
# Summary of the method: as §1
# [19] = biological target: GlcNAc(a1-4)Gal(b1-4)GlcNAc(b1-3)Gal(b1-4)GlcNAc
# Summary of the method: as §1
# [20] = biological target: GlcNAc(a1-4)Gal(b1-4)GlcNAc(b1-3)Gal(b1-4)GlcNAc(b1-3)Gal(b1-4)GlcNAc
# Summary of the method: as §1
# [21] = biological target: GlcNAc(a1-4)Gal(b1-4)GlcNAc(b1-3)Gal(b1-4)[Fuc(a1-3)]GlcNAc(b1-3)Gal(b1-4)[Fuc(a1-3)]GlcNAc
# Summary of the method: as §1
# [22] = biological target: GlcNAc(a1-6)Gal(b1-4)GlcNAc
# Summary of the method: as §1
binder,measurement,setting,value
B1,glycan array binding signal (z-score),Gal6S(b1-4)Glc6S,-0.07
same,glycan array binding signal (z-score),Gal6S(b1-4)GlcNAc,1.31
same,glycan array binding signal (z-score),Gal6S(b1-4)GlcNAc6S,-0.024
same,glycan array binding signal (z-score),GalNAc(a1-3)Gal,0.563
same,glycan array binding signal (z-score),GalNAc(a1-3)GalNAc,0.791
same,glycan array binding signal (z-score),[1],-0.377
same,glycan array binding signal (z-score),[2],-0.101
same,glycan array binding signal (z-score),GalNAc(b1-3)Gal,1.19
same,glycan array binding signal (z-score),[3],0.022
same,glycan array binding signal (z-score),[4],-1.3
same,glycan array binding signal (z-score),[5],-1.22
same,glycan array binding signal (z-score),GalNAc(b1-3)GalNAc,-1.25
same,glycan array binding signal (z-score),GalNAc(b1-3)GlcNAc,0.327
same,glycan array binding signal (z-score),GalNAc(b1-4)Gal(b1-4)Glc,-0.229
same,glycan array binding signal (z-score),GalNAc(b1-4)GlcNAc,1.36
same,glycan array binding signal (z-score),[6],0.931
same,glycan array binding signal (z-score),[7],-0.678
same,glycan array binding signal (z-score),[8],-1.25
same,glycan array binding signal (z-score),GalNAc(b1-4)GlcNAc6S,0.943
same,glycan array binding signal (z-score),GalNAc(b1-6)GalNAc,0.476
same,glycan array binding signal (z-score),GalNAc3S(b1-4)GlcNAc,-0.046
same,glycan array binding signal (z-score),GalNAc3S(b1-4)GlcNAc3S,0.646
same,glycan array binding signal (z-score),[9],-1.21
same,glycan array binding signal (z-score),GalNAc4S6S(b1-4)GlcNAc,0.652
same,glycan array binding signal (z-score),GalNAc6S(b1-4)GlcNAc,-0.921
same,glycan array binding signal (z-score),Glc(a1-4)Glc,0.052
same,glycan array binding signal (z-score),[10],-0.083
same,glycan array binding signal (z-score),Glc(a1-6)Glc(a1-6)Glc,0.381
same,glycan array binding signal (z-score),[11],-0.108
same,glycan array binding signal (z-score),Glc(b1-4)Glc,0.009
same,glycan array binding signal (z-score),Glc(b1-6)Glc,-1.37
same,glycan array binding signal (z-score),GlcA(b1-3)Gal,0.159
same,glycan array binding signal (z-score),GlcA(b1-3)GlcNAc,-0.711
same,glycan array binding signal (z-score),GlcA(b1-6)Gal,-0.477
same,glycan array binding signal (z-score),[12],0.196
same,glycan array binding signal (z-score),[13],-0.029
same,glycan array binding signal (z-score),[14],-0.227
same,glycan array binding signal (z-score),[15],-0.585
same,glycan array binding signal (z-score),[16],0.447
same,glycan array binding signal (z-score),[17],0.005
same,glycan array binding signal (z-score),[18],-1.28
same,glycan array binding signal (z-score),[19],-0.395
same,glycan array binding signal (z-score),[20],-0.709
same,glycan array binding signal (z-score),[21],2.04
same,glycan array binding signal (z-score),[22],-0.394

# 9 neighbouring records out of the list so far:
binder,measurement,setting,value
B1,glycan array binding signal (z-score),[8],-1.25
same,glycan array binding signal (z-score),GalNAc(b1-4)GlcNAc6S,0.943
same,glycan array binding signal (z-score),GalNAc(b1-6)GalNAc,0.476
same,glycan array binding signal (z-score),GalNAc3S(b1-4)GlcNAc,-0.046
same,glycan array binding signal (z-score),GalNAc3S(b1-4)GlcNAc3S,0.646
same,glycan array binding signal (z-score),[9],-1.21
same,glycan array binding signal (z-score),GalNAc4S6S(b1-4)GlcNAc,0.652
same,glycan array binding signal (z-score),GalNAc6S(b1-4)GlcNAc,-0.921
same,glycan array binding signal (z-score),Glc(a1-4)Glc,0.052
